Among the data in article PMC3884107 are binding values, retold here.

Protein sequences, listed by entry. Tags and fused reporters are not part of them. Lines headed by an entry give the natural chain unless they say otherwise; changes in a name come on top.
UniProt P26927: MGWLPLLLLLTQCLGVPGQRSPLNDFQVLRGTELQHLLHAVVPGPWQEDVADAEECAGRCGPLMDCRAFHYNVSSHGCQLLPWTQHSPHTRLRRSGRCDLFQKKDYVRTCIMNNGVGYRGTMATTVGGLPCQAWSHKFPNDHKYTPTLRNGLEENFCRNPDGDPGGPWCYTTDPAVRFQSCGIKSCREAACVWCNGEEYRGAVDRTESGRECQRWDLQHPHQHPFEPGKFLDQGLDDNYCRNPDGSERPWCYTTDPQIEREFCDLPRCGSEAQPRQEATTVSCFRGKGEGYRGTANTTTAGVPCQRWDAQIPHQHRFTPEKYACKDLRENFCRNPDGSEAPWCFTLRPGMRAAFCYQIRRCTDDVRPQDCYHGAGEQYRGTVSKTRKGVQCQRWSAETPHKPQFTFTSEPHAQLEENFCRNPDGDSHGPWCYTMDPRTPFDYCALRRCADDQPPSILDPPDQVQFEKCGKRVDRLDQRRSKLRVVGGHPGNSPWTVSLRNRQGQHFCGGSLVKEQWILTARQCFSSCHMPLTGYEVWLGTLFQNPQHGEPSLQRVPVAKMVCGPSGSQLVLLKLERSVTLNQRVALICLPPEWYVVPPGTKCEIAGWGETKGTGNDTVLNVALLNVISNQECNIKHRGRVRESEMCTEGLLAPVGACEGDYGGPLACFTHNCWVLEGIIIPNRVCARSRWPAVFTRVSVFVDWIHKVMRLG

Assay [1] addresses T1, RON Sema/PSI (human RON residues E25-P568) (human) (UniProt Q04912).
T1 sequence: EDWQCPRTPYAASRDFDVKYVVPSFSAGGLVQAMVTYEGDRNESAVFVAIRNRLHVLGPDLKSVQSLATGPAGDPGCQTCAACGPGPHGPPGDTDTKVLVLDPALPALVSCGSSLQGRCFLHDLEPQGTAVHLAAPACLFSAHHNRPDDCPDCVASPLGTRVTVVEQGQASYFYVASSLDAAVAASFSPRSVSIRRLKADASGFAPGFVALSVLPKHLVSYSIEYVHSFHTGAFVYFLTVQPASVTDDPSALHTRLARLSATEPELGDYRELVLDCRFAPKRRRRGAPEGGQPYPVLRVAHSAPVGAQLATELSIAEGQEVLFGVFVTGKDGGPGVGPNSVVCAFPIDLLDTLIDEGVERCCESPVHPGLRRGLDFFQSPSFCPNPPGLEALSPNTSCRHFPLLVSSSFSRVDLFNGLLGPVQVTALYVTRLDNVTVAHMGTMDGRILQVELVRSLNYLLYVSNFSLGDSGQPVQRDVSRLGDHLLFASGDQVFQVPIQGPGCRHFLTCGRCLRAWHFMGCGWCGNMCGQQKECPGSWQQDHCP
As to the kind of experiment: SPR; RON Sema/PSI amine-coupled to a CM5 chip, Biacore 3000; MSP, MSP β or scMSP injected 500-3.9 nM in HBS-P (10 mM HEPES pH 7.5, 150 mM NaCl, 0.005% P20), 25°C, 30 µl/min; global 1:1 Langmuir fit, KD = koff/kon; both purified. Background: In SPR one partner is held on a chip, and binding of the other changes the refractive index at the surface.

Assay [2] deals with T2, RON-Fc (human RON Sema, PSI and IPT1 domains, E25-M682, Fc fusion with human IgG1) (human) (UniProt Q04912).
T2 sequence: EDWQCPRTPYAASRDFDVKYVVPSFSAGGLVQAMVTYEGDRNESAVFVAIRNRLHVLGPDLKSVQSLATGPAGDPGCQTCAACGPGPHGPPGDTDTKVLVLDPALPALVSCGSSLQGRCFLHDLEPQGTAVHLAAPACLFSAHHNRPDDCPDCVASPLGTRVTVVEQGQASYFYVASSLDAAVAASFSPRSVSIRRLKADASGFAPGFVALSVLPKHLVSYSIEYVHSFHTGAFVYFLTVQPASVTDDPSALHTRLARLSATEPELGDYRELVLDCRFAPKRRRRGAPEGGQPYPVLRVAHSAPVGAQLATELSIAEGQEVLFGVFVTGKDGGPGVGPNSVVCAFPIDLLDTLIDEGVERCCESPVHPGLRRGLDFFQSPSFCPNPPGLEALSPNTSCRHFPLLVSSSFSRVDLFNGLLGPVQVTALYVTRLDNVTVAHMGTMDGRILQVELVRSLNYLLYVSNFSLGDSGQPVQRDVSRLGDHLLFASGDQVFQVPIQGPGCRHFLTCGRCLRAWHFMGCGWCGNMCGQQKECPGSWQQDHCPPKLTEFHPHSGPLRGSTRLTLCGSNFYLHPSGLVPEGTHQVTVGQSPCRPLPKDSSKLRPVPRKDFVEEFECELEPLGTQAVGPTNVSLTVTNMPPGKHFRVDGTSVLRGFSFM
As to the kind of experiment: ELISA; RON-Fc (1 µg/ml) captured on plate-coated rabbit anti-human IgG Fc; MSP 1000 nM-0.2 pM, 1 h, room temperature; 50 mM HEPES pH 7.2, 150 mM NaCl, 5 mM CaCl2, 1% BSA, 0.1% Tween-20; bound MSP detected with anti-His-HRP; 4-parameter fit; both purified. In general terms: ELISA stands for enzyme-linked immunosorbent assay.

Assay [3] deals with T2, RON-Fc (human RON Sema, PSI and IPT1 domains, E25-M682, Fc fusion with human IgG1) (human). As to the kind of experiment: SPR; RON-Fc captured (50-100 RU) on immobilised anti-human Fc surfaces, CM5 chip, Biacore 3000; MSP, MSP β or scMSP injected 500-3.9 nM in HBS-P (10 mM HEPES pH 7.5, 150 mM NaCl, 0.005% P20), 25°C, 30 µl/min; global 1:1 Langmuir fit, KD = koff/kon; both purified.

For assay [4] the target is unchanged. In words: BLI; RON-Fc (10 µg/ml) loaded on anti-human IgG Fc biosensors, Octet RED384; MSP, MSP β or scMSP 75-4.7 nM, 400 s association, 400 s dissociation, 30°C; global 1:1 fit, KD = koff/kon; both purified. (In general: BLI is a label-free optical method that tracks binding on a fibre tip over time.)

These are yes or no findings as the source states them, for the method shown. For some of these results: Binding can be weak; no strength is given. For some of these results: Sequences can lack the tags named with a protein.

For the substance “scMSP (noncleavable single-chain pro-MSP; Q19-G711; R483E, C672A) (from UniProt P26927) (ligand)”, the binding entry in assay [1] is “no binding (tested: 500 nM)”; in assay [2] it was “binds weakly”; in assay [3], “no binding (tested: 500 nM)”; in assay [4] it was “no binding (tested: 75 nM)”.
